# In PubChem BioAssay AID2685 (National Center for Advancing Translational Sciences (NCATS), 2010):
# The whole screen tested about 320,000 compounds, of which about 2,100 (0.66%) were called active. The shares of active, inactive and inconclusive entries below differ from those in the screen. Calls follow the shape of the dose curve; as a rule, active = well fitted inhibition curve with a large enough effect in the signal ratio, with a control signal flat (not every such curve was filed as active); inconclusive = small, poorly fitted or top-dose-only effect, or effect the other way, or a change in a side signal; inactive = flat fitted curve, though single readings scatter; the % refers to the signal ratio. Where the call is inconclusive, the potency comes from a doubtful curve fit.
# Experiment: qHTS Assay for Lipid Storage Modulators in Drosophila S3 Cells
# Settings: BODIPY lipid droplet fluorescence, 18-24 h, cells fed with added oleic acid; lipid storage change, negative = inhibition: at 46.1 µM (top of the series) unless noted
# Text: NIH Molecular Libraries Probe Production Centers Network [MLPCN] NIH Chemical Genomics Center [NCGC] MLPCN Grant: 1 R03 MH085686-01 Assay Submitter (PI): Beller, Mathias; Max-Planck-Institut fur Biophysikalische Chemie NCGC Assay Overview: Storing lipids as a reservoir for energy or the anabolism of elementary metabolites is a common feature of probably all cells and is conserved from bacteria to humans. The universal cellular lipid storage organelle is the so-called lipid storage droplet (LD). Although ubiquitous, LDs share a simple structure composed of a hydrophobic core that harbors the storage lipids, which is shielded by a droplet-specific phospholipid monolayer to which proteins are attached. The current model of LD biogenesis involves an incorporation of the lipid core into the membrane leaflets of the endoplasmic reticulum (ER) followed by a subsequent budding-like maturation of a LD, which ultimately pinches off. Once released, LD volume can increase by localized lipogenesis or fusion of existing droplet. Storage lipids are re-mobilized enzymatically by lipase activity. Lipase regulation in the adipocyte is heavily studied and involves multiple components including catecholamine signaling, the LD-associated proteins Perilipin and comparative gene identification (CGI-58) and at least two lipases named hormone sensitive lipase (HSL) and adipocyte triglyceride lipase (ATGL). LD regulation outside of the adipocyte is poorly understood and only few components are known. However, there is an urgent need to learn more about ectopic fat depots as mislocalized storage of lipids, for example in the liver or muscle, is an eminent health problem associated with insulin resistance or the metabolic syndrome. We developed a laser-scanning cytometer assay to enable 1,536-well screening and combined the results of the small molecules screen with an RNAi database based on lipid storage.
# Triacsin C (Sigma-Aldrich T-4540), an inhibitor of long-chain fatty acyl CoA synthetase that blocks synthesis of triglycerides, was used as a positive control for lipid under-storage. A total of 23 nL of compound solution of different concentrations were transferred to the assay plates using a Kalypsys pin tool equipped with a 1,536-pin array containing 10-nL slotted pins (FP1S10, 0.457-mm diameter, 50.8 mm long; V&P Scientific). One microliter of oleic acid (400 uM) was added, and the plate was lidded with stainless steel rubber gasket lined lids containing pinholes. […] Fluorescence was detected by excitation of the fluorophores with a 488-nm laser on an Acumen Explorer (TTP Lab Tech). The total intensity in channel 2 (500-530 nm) reflected lipid droplet accumulation. Cells were detected using channel 3 (575-640 nm) with 5-um width and 100-um depth filters. The ratio of the number of objects in PMT channel 2 over the number of objects in PMT channel 3 was also calculated. Percent activity was computed relative to an internal control (100% inhibited lipid droplet deposition due to the presence of 20 uM Triacsin C), which was added to 32 wells/plate.
# % is scaled to controls: 0 for no effect and ±100 for the full control effect; potency is read from the fitted curve at half-maximal effect.
Compound,"lipid storage change, negative = inhibition",Potency
O=C(O)c1cccc(Nc2ccc3nonc3c2[N+](=O)[O-])c1,inconclusive: 124%,
CN1CCOc2ccc(S(=O)(=O)NCCc3ccc(Cl)cc3)cc21,inconclusive: -13%,
Cc1cc(N2CCOCC2)nc(SCC(=O)c2ccc(Cl)cc2)n1,,"inconclusive: 3.26 µM [activator, full curve]"
COc1ccc(OC)c(NC(=O)CCNS(=O)(=O)c2ccc3c(c2)c(=O)n(C)c(=O)n3C)c1,inconclusive: 25.3%,
Cc1onc(-c2ccccc2Cl)c1C(=O)N1CC(C)OC(C)C1 (stereo not given),inconclusive: 37.2%,
CC(C)Cc1nc(N2CCN(C(=O)c3ccco3)CC2)c(C#N)c2c1CCCC2,,"inconclusive: 0.0651 µM [falling, full curve, poor fit]"
CCOc1ccccc1CN1CCNC(=O)C1CC(=O)NC1CCCCCC1 (stereo not given),inconclusive: -8.83%,
O=C(NCC1CCCO1)c1ccc(Cl)c(S(=O)(=O)N2CCOCC2)c1 (stereo not given),,"inconclusive: 0.206 µM [activator, full curve, poor fit]"
COc1cccc(C2SCC(=O)N2c2ccc(C)cc2)c1OC (stereo not given),inconclusive: -13.4%,
CCCN(CC(=O)Nc1ccccc1OC)C(=O)c1cc2ccccc2o1,inconclusive: 26.1%,
CC(=O)C1=C(O)C(=O)N(c2ccc(Br)cc2)C1c1cccc([N+](=O)[O-])c1 (stereo not given),,"inconclusive: 13 µM [activator, single point]"
CC(C)NCC1CCc2cc(CO)c([N+](=O)[O-])cc2N1 (stereo not given),inconclusive: -16.7%,
CSc1nnc2c(n1)[nH]c1c(C)cccc12,inactive,
CCN(Cc1ccncc1)Cc1cn(C)nc1-c1ccc(Oc2ccccc2)cc1,inconclusive: 6.86%,
Cc1ccc(Nc2nc(N)nc(CSC(=S)N3CCN(c4ccccc4)CC3)n2)cc1,inconclusive: 17.6%,
O=C(CCNC(=O)c1ccco1)Nc1ccc(Cl)cc1,inconclusive: 32.9%,
CCCCn1c(N)c(N(CC(C)C)C(=O)c2cccc(S(=O)(=O)N3CC(C)OC(C)C3)c2)c(=O)[nH]c1=O (stereo not given),inconclusive: 43.5% [at 0.0737 µM],
Cc1ccc(OCCC(=O)OCC(=O)NC(=O)NCc2ccccc2)cc1,inconclusive: -15%,
COc1cccc(/C=N/Nc2ncc(C)c(=O)[nH]2)c1OC,inconclusive: 205%,
O=C(C(c1ccccc1)c1ccccc1)N1CC[C@@]2(O)CCCC[C@H]2C1,inactive,
CC1CC(C)CN(C(=O)Cn2c(=O)c3cccn3c3cccnc32)C1 (stereo not given),,"inconclusive: 10.3 µM [activator, partial curve, poor fit]"
O=C(Nc1ccccc1N1CCOCC1)c1ccco1,inconclusive: 9.31%,
COc1ccc(N2CCN(C(=O)NC(=O)c3ccc(Cl)cc3)CC2)cc1,,"inconclusive: 6.51 µM [activator, single point]"
O=C1NCCN(Cc2ccc(Cl)c(F)c2)C1CC(=O)N1CCCCO1 (stereo not given),inactive,
CCc1cccc(CC)c1N(COC)C(=O)Cn1cnc2ccccc21,inconclusive: 32.8%,
COC(=O)Cc1csc(N)n1,inconclusive: -0.0463%,"inconclusive: 16.4 µM [falling, partial curve]"
CCCc1nc2c([nH]1)c(=O)n(C)c(=O)n2C,,"inconclusive: 29.1 µM [falling, partial curve, poor fit]"

Compound,"lipid storage change, negative = inhibition",Potency
O=C(Nc1nnc(C2=COCCO2)o1)c1ccc([N+](=O)[O-])s1,,"inconclusive: 9.2 µM [falling, partial curve, poor fit]"
CCN(CC(=O)Nc1c(F)cccc1F)C(=O)CN(C)S(=O)(=O)c1ccc(F)cc1,inconclusive,
CCc1cc2c(=O)c(-c3nc(C)cs3)c(CCCC(=O)O)oc2cc1O,inconclusive: -1.1%,
CCOc1cc(NC(=O)c2ccccc2C(=O)O)c(OCC)cc1NC(=O)c1ccccc1F,inconclusive: 0.168%,
O=c1oc2ccccc2c2c1ncn2C1CCCCC1,,"inconclusive: 11.6 µM [activator, partial curve]"
CCCOc1ccccc1C(=O)N1CCNC(=O)C1CC(=O)OC(C)C (stereo not given),inconclusive: 48.6%,
N#C/C(=C\C=C\c1ccccc1)C(=O)N1CCCC1,inconclusive: 17.4%,
C=CCN(C(=O)c1oc2c(Cl)cc(C)cc2c1C)C1CCS(=O)(=O)C1 (stereo not given),,active: 20.6 µM
CN(C(=O)c1ccccc1C(=O)OCC(=O)Nc1ccc(S(N)(=O)=O)cc1)c1ccccc1,inconclusive,
O=S(=O)(c1cccc(NC(=S)N2CCN(c3cccc(Cl)c3)CC2)c1)C(F)F,inconclusive: -25.2%,
Cc1cnc(C(=O)NCCc2ccc(S(=O)(=O)NC(=O)NC3CCCCC3)cc2)cn1,inconclusive: -10.4%,
CCOc1cccc(/C=N/N2C(C)CCCC2C)c1O (stereo not given),inconclusive: 10.3%,
COc1ccccc1NC(=O)CN1C(=O)CCS(=O)(=O)c2ccccc21,inconclusive: 8.41%,
O=C(NC(=S)NCCc1ccccc1)c1ccccc1,inconclusive: 32.7%,
CCCCC[C@H]1CN(CCCC)C(=O)[C@@H]1CC(=O)NCc1ccccc1,,"inconclusive: 23.1 µM [falling, single point]"
O=C(CCCc1nc2ccccc2s1)Nc1ccc(N2CCOCC2)cc1,inconclusive: -3.5%,
O=C1OCC(c2ccc(Cl)s2)=C1c1ccccc1[N+](=O)[O-],,"inconclusive: 3.26 µM [falling, single point]"
COc1ccc(C(=O)N2CCCN(C)CC2)cc1S(=O)(=O)N1CCCc2ccccc21,,"inconclusive: 0.0041 µM [falling, full curve, poor fit]"
O/N=C/c1cccnc1Sc1ccccc1,inconclusive: 7.84%,
COc1cccc(/C=C/C(=O)c2ccc3c(c2)OCO3)c1OC,,"inconclusive: 2.59 µM [activator, partial curve, poor fit]"
CCn1cc(C(=O)N2CCc3ccccc32)c(=O)c2cc(S(=O)(=O)N3CCCCCC3)ccc21,,"inconclusive: 5.17 µM [rising, partial curve]"
COCc1nnc(NC(=O)C2CC(=O)N(CCc3ccc(F)cc3)C2)s1 (stereo not given),inconclusive: -49%,
O=C(NCc1cccs1)c1cccc(S(=O)(=O)N2CCCCC2)c1,inconclusive: -62.8%,
COc1cc(/C=C/c2nc3ccccc3s2)cc(OC)c1O,inconclusive: -26.5%,
CCOC(=O)CC1COCCN1Cc1cn[nH]c1-c1cc(OC)c(OC)c(OC)c1 (stereo not given),,"inconclusive: 0.0046 µM [rising, full curve, poor fit]"
Cc1cc(C)cc(-c2nnc(SCC(=O)Nc3cc(C)on3)o2)c1,inconclusive,
NS(=O)(=O)c1ccc(NC(=S)NCC2CCCO2)cc1 (stereo not given),inconclusive: 14.4%,

Compound,"lipid storage change, negative = inhibition",Potency
O=C(N/N=C1/CCS(=O)(=O)c2ccc(F)cc21)c1cccnc1,inconclusive: 12.2%,
COC(=O)c1ccc(-c2ccco2)n1Cc1ccccc1Cl,inconclusive: -10.3%,
O/N=C1\CC(O)Cc2nonc21 (stereo not given),,"inconclusive: 29.1 µM [activator, single point]"
O=c1ccn(Cc2ccccc2)cc1,inconclusive: -17.4%,
CCC(C)NC(=O)C1c2ccccc2C(=O)N(c2ccc(OC)cc2)C1c1ccc(OC)cc1 (stereo not given),inconclusive: 36%,
COc1ccc(S(=O)(=O)Nc2ccccc2C(N)=O)cc1OC,inconclusive: 5.49%,
CC(=O)Oc1c(Cl)c(N2CCOCC2)c(OC(C)=O)c2ccccc12,inconclusive: -29.5%,
COCCN(C)Cc1nc(C(c2ccccc2)c2ccccc2)no1,,"inconclusive: 1.84 µM [activator, partial curve]"
CC(C)n1c(SCC(=O)N2CCN(C(=O)c3ccco3)CC2)nc2c1c(=O)n(C)c(=O)n2C,inconclusive: 17%,
CCOC(=O)c1ccccc1C(=O)N1CCOCCOCCOCC1,inconclusive: 56.9%,
CN(C)C1=NCCN1CCCCc1ccccc1,inconclusive: 7.02%,
N#CC1=C(SCc2ccccc2)NC(=O)CC1c1ccco1 (stereo not given),inconclusive: 47.1%,
Cc1cc(C(=O)COC(=O)c2ccc(F)cc2F)c(C)n1C1CC1,inconclusive: 111%,
CCC(C)n1c(-c2ccco2)nc2nc3ccccc3nc21 (stereo not given),inconclusive: -31.6%,
CCOc1ccc(CN(C(=O)c2oc3ccccc3c2C)C2CCS(=O)(=O)C2)cc1 (stereo not given),inconclusive: 35.1%,
CCC(CC)c1nnc(NC(=O)CCS(=O)(=O)Cc2ccccc2)s1,inconclusive: -77.5%,
COC(=O)N(C)c1nc2ccccc2s1,,"inconclusive: 0.103 µM [activator, full curve, poor fit]"
CCn1c(CNc2ccc(F)cc2)nnc1SCCN1CCCCC1,inconclusive: -11.2%,
CSC1=NC(C)(C)C=C(/C=C/c2c(Cl)cccc2Cl)N1,inconclusive: 1.08%,
Cc1ccc2nc(-c3ccc(NC(=O)COC(=O)c4ccc(Br)o4)cc3)sc2c1,inconclusive: 14.8%,
CN=c1scc(C)n1/N=C/c1ccc(O)cc1O,,"inconclusive: 29.1 µM [falling, single point]"
Cc1cc(C(=O)CSc2ncn[nH]2)c(C)n1-c1cccc(S(=O)(=O)N2CCOCC2)c1,,"inconclusive: 4.11 µM [falling, full curve, poor fit]"
COC(=O)c1cn(Cc2cccnc2)c(=O)c2ccccc12,inconclusive: 5.74%,
Cc1ccccc1-n1nc2c(c1NC(=O)COc1ccc(Cl)cc1)CS(=O)C2 (stereo not given),inconclusive: 58.7%,
CCCc1ccc(C#N)c(SC2CC(=O)N(c3ccc(OC)cc3)C2=O)n1 (stereo not given),inconclusive: 28.7%,

# Copied from the results shown (16 entries):
Compound,"lipid storage change, negative = inhibition",Potency
CC(=O)Oc1c(Cl)c(N2CCOCC2)c(OC(C)=O)c2ccccc12,inconclusive: -29.5%,
COCCN(C)Cc1nc(C(c2ccccc2)c2ccccc2)no1,,"inconclusive: 1.84 µM [activator, partial curve]"
CC(C)n1c(SCC(=O)N2CCN(C(=O)c3ccco3)CC2)nc2c1c(=O)n(C)c(=O)n2C,inconclusive: 17%,
CCOC(=O)c1ccccc1C(=O)N1CCOCCOCCOCC1,inconclusive: 56.9%,
CN(C)C1=NCCN1CCCCc1ccccc1,inconclusive: 7.02%,
N#CC1=C(SCc2ccccc2)NC(=O)CC1c1ccco1 (stereo not given),inconclusive: 47.1%,
Cc1cc(C(=O)COC(=O)c2ccc(F)cc2F)c(C)n1C1CC1,inconclusive: 111%,
CCC(C)n1c(-c2ccco2)nc2nc3ccccc3nc21 (stereo not given),inconclusive: -31.6%,
CCOc1ccc(CN(C(=O)c2oc3ccccc3c2C)C2CCS(=O)(=O)C2)cc1 (stereo not given),inconclusive: 35.1%,
CCC(CC)c1nnc(NC(=O)CCS(=O)(=O)Cc2ccccc2)s1,inconclusive: -77.5%,
COC(=O)N(C)c1nc2ccccc2s1,,"inconclusive: 0.103 µM [activator, full curve, poor fit]"
CCn1c(CNc2ccc(F)cc2)nnc1SCCN1CCCCC1,inconclusive: -11.2%,
CSC1=NC(C)(C)C=C(/C=C/c2c(Cl)cccc2Cl)N1,inconclusive: 1.08%,
Cc1ccc2nc(-c3ccc(NC(=O)COC(=O)c4ccc(Br)o4)cc3)sc2c1,inconclusive: 14.8%,
CN=c1scc(C)n1/N=C/c1ccc(O)cc1O,,"inconclusive: 29.1 µM [falling, single point]"
Cc1cc(C(=O)CSc2ncn[nH]2)c(C)n1-c1cccc(S(=O)(=O)N2CCOCC2)c1,,"inconclusive: 4.11 µM [falling, full curve, poor fit]"
